Experimental data: PubChem BioAssay AID226 (DTP/NCI, 2004)
The list does not hold the whole screen: it gathers tests that were run many times, whatever their T/C, doses with no T/C, and many T/C values between a quarter and a half above the control. Further doses and runs are listed elsewhere. T/C is the treated group as % of the vehicle group. Some doses have a count of surviving animals in place of a T/C: the source files T/C as zero there, which appears to mark a toxic dose or a test without result, not a measured value. Some survivor counts are full or nearly so, which does not show that the dose was tolerated: survival well below the control is almost never listed, so the zero probably covers shortened survival too. Counts of survivors are from the toxicity check (mostly the fifth day) where no day follows; animals may have died later. Schedules are NCI's codes, read here as Q, the interval in days (D) or hours (H), X, the number of doses. Some entries hold several experiments; the results are listed from low to high. Some schedules carry Z or #; the key to these is not given. For survival time, this PubChem deposit counts one and a half times the control or more as active, and values a quarter to a half above the control carry no call in these data; other NCI protocols may use other cut-offs. Some T/C values are followed by the survivors on the day toxicity was checked, most often the fifth; where none is given, no animal had died by that day. Signs of the kind (2×) give the number of equal values in this list.

System: B6C3F1 mice, intracerebral ependymoblastoma, median survival T/C
Assay: NCI In Vivo Anticancer Drug Screen. Data for tumor model Ependymoblastoma (intracerebral) in B6C3F1 mice
Details: T/C endpoint: median survival time, higher T/C = longer survival
Experimental: The antitumor activity of compounds was measured in mice bearing transplantable tumors. Survival or tumor size were measured and the results are expressed as the measurement made in the treated group (T) divided by the measurement made in the vehicle treated control group (C). The tumor model used in this assay is Ependymoblastoma (intracerebral) in B6C3F1 mice

[1] = dose: 12.5 mg/kg/injection, schedule: Q01DX005 (ip), vehicle: saline with Tween-80
[2] = dose: 50.0 mg/kg/injection, schedule: Q01DX005 (ip), vehicle: saline with Tween-80

SMILES: O=C(NP(=O)(N1CC1)N1CC1)c1cc(I)ccc1I
- T/C (dose: 32.0 mg/kg/injection, schedule: Q01DX005 (ip), vehicle: saline): 133 % of control
- T/C (dose: 64.0 mg/kg/injection, schedule: Q01DX005 (ip), vehicle: saline): 128 and 142 % of control
- T/C (dose: 64.0 mg/kg/injection, schedule: Q#A X010 (oral), vehicle: suspension in saline): 144 % of control
- survivor count (dose: 128.0 mg/kg/injection, schedule: Q01DX005 (ip), vehicle: saline): 10 of 10
- survivor count (dose: 128.0 mg/kg/injection, schedule: Q#A X006 (ip), vehicle: suspension in saline): 10 of 10
- T/C (dose: 128.0 mg/kg/injection, schedule: Q#A X010 (oral), vehicle: suspension in saline): 148 % of control
- survivor count (dose: 256.0 mg/kg/injection, schedule: Q01DX001 (ip), vehicle: suspension in saline): 6 of 10
- survivor count (dose: 256.0 mg/kg/injection, schedule: Q01DX005 (ip), vehicle: saline): 10 of 10
- survivor count (dose: 256.0 mg/kg/injection, schedule: Q#A X004 (ip), vehicle: suspension in saline): 3 of 10
- survivor count (dose: 256.0 mg/kg/injection, schedule: Q#A X006 (ip), vehicle: suspension in saline): 6 of 10
- T/C (dose: 256.0 mg/kg/injection, schedule: Q#A X010 (oral), vehicle: suspension in saline): 143 % of control
- T/C (dose: 512.0 mg/kg/injection, schedule: Q01DX001 (oral), vehicle: suspension in saline): 133 % of control
- survivor count (dose: 512.0 mg/kg/injection, schedule: Q#A X004 (ip), vehicle: suspension in saline): 2 of 10
- survivor count (dose: 512.0 mg/kg/injection, schedule: Q#A X010 (oral), vehicle: suspension in saline): 9 of 10
- survivor count (dose: 1024.0 mg/kg/injection, schedule: Q01DX001 (ip), vehicle: suspension in saline): 4 of 10
- T/C (dose: 1024.0 mg/kg/injection, schedule: Q01DX001 (oral), vehicle: suspension in saline): 132 % of control
- survivor count (dose: 1024.0 mg/kg/injection, schedule: Q#A X010 (oral), vehicle: suspension in saline): 8 of 10

SMILES: O=NN(CCCl)C(=O)NC1CCC(=O)NC1=O (configuration not stated)
- T/C (dose: 0.5 mg/kg/injection, schedule: Q01DX005 (ip), vehicle: saline): 115 (2×), 117, 132 % of control
- T/C (dose: 0.5 mg/kg/injection, schedule: Q01DX005 (ip), vehicle: suspension in saline): 126 % of control
- T/C (dose: 0.5 mg/kg/injection, schedule: Q01DX009 (ip), vehicle: saline with Tween-80): 128 % of control [9 of 10 alive]
- T/C (dose: 1.0 mg/kg/injection, schedule: Q01DX005 (ip), vehicle: saline with Tween-80): 134 % of control
- T/C (dose: 1.0 mg/kg/injection, schedule: Q01DX005 (ip), vehicle: saline): 118, 135, 147, 153 % of control
- T/C (dose: 2.0 mg/kg/injection, schedule: Q01DX001 (ip), vehicle: saline + alcohol): 125 % of control
- T/C (dose: 2.0 mg/kg/injection, schedule: Q01DX005 (ip), vehicle: Klucel (hydroxypropylcellulose) (HPC)): 127 % of control [9 of 10 alive]
- T/C (dose: 2.0 mg/kg/injection, schedule: Q01DX005 (ip), vehicle: saline): 157, 180, 181, 250 % of control
- T/C (dose: 2.0 mg/kg/injection, schedule: Q01DX005 (ip), vehicle: suspension in saline): 128 % of control
- T/C (dose: 4.0 mg/kg/injection, schedule: Q01DX005 (ip), vehicle: saline): 238, 250, 294, 363 % of control
- survivor count (dose: 4.0 mg/kg/injection, schedule: Q01DX009 (ip), vehicle: saline with Tween-80): 9 of 9
- T/C (dose: 4.32 mg/kg/injection, schedule: Q01DX001 (ip), vehicle: Klucel (hydroxypropylcellulose) (HPC)): 144 % of control
- T/C (dose: 8.0 mg/kg/injection, schedule: Q01DX005 (ip), vehicle: saline): 117, 123, 184, 362 % of control
- survivor count (dose: 8.0 mg/kg/injection, schedule: Q01DX009 (ip), vehicle: saline with Tween-80): 8 of 9
- T/C (dose: 16.0 mg/kg/injection, schedule: Q01DX001 (ip), vehicle: suspension in saline): 134 % of control
- survivor count (dose: 16.0 mg/kg/injection, schedule: Q01DX005 (ip), vehicle: Klucel (hydroxypropylcellulose) (HPC)): 7 of 10
- survivor count (dose: 16.0 mg/kg/injection, schedule: Q01DX005 (ip), vehicle: saline): 9 of 10 and 10 of 10
- survivor count (dose: 16.0 mg/kg/injection, schedule: Q01DX005 (ip), vehicle: suspension in saline): 10 of 10
- survivor count (dose: 16.0 mg/kg/injection, schedule: Q01DX009 (ip), vehicle: saline with Tween-80): 10 of 10
- survivor count (dose: 20.0 mg/kg/injection, schedule: Q01DX005 (ip), vehicle: Klucel (hydroxypropylcellulose) (HPC)): 8 of 10 on day 6
- survivor count (dose: 64.0 mg/kg/injection, schedule: Q01DX001 (ip), vehicle: DMSO): 8 of 10

SMILES: CN1C(=O)CC(c2ccc(NC(=O)N(CCCl)N=O)cc2)C1=O (configuration not stated)
- T/C (dose: 3.0 mg/kg/injection, schedule: Q01DX005 (ip), vehicle: distilled water + Tween-80): 132 % of control

SMILES: O=P(NC12CC3CC(CC(C3)C1)C2)(N1CC1)N1CC1
- T/C (dose: 9.0 mg/kg/injection, schedule: Q01DX005 (ip), vehicle: Klucel (hydroxypropylcellulose) (HPC)): 125 % of control
- T/C (dose: 18.0 mg/kg/injection, schedule: Q01DX005 (ip), vehicle: Klucel (hydroxypropylcellulose) (HPC)): 125 % of control

SMILES: CCC1=C(c2ccc(OC)cc2)CCC(C(=O)O)C1C (configuration not stated)
- T/C (dose: 8.0 mg/kg/injection, schedule: Q01DX001 (ip), vehicle: saline): 90 [9 of 10 alive], 95 [survivors not given], 97 [survivors not given], 100 % of control [survivors not given]
- T/C (dose: 16.0 mg/kg/injection, schedule: Q01DX001 (ip), vehicle: saline): 97 [survivors not given], 99, 100 [survivors not given], 107 % of control [survivors not given]
- T/C (dose: 32.0 mg/kg/injection, schedule: Q01DX001 (ip), vehicle: saline): 100, 102 [survivors not given], 103 % of control [survivors not given]
- T/C (dose: 64.0 mg/kg/injection, schedule: Q01DX001 (ip), vehicle: saline): 100 [survivors not given], 101, 102 [survivors not given], 103 % of control [survivors not given]

SMILES: CC1(C)OCC(CO)(Nc2nc(N3CC3)nc(N3CC3)n2)CO1
- survivor count (dose: 10.0 mg/kg/injection, schedule: Q01DX005 (ip), vehicle: suspension in saline): 9 of 10
- survivor count (dose: 20.0 mg/kg/injection, schedule: Q01DX005 (ip), vehicle: suspension in saline): 8 of 10

SMILES: COc1cccc2c1C(=O)c1c(O)c3c(c(O)c1C2=O)C[C@@](O)(C(C)=O)C[C@@H]3OC1CC(N)C(O)C(C)O1 (some centres not stated)
- survivor count (dose: 2.0 mg/kg/injection, schedule: Q01DX005 (ip), vehicle: water): 10 of 10
- survivor count (dose: 4.0 mg/kg/injection, schedule: Q01DX005 (ip), vehicle: water): 9 of 10 and 10 of 10
- survivor count (dose: 8.0 mg/kg/injection, schedule: Q01DX005 (ip), vehicle: water): 7 of 10 and 8 of 10
- survivor count (dose: 16.0 mg/kg/injection, schedule: Q01DX005 (ip), vehicle: water): 4 of 10
- survivor count (dose: 32.0 mg/kg/injection, schedule: Q01DX005 (ip), vehicle: water): 0 of 10

SMILES: CN(C)/N=N/c1nc[nH]c1C(N)=O
- T/C [1]: 134 % of control
- T/C (dose: 16.0 mg/kg/injection, schedule: Q01DX005 (ip), vehicle: saline with Tween-80): 145 % of control
- T/C (dose: 25.0 mg/kg/injection, schedule: Q01DX005 (ip), vehicle: saline with Tween-80): 143 % of control
- T/C [2]: 148 % of control
- T/C (dose: 100.0 mg/kg/injection, schedule: Q01DX005 (ip), vehicle: Klucel (hydroxypropylcellulose) (HPC)): 136 % of control
- T/C (dose: 128.0 mg/kg/injection, schedule: Q01DX005 (ip), vehicle: saline with Tween-80): 146 % of control
- T/C (dose: 200.0 mg/kg/injection, schedule: Q01DX005 (ip), vehicle: Klucel (hydroxypropylcellulose) (HPC)): 133 % of control
- T/C (dose: 400.0 mg/kg/injection, schedule: Q01DX005 (ip), vehicle: Klucel (hydroxypropylcellulose) (HPC)): 136 % of control

SMILES: NC(=S)Nc1cccc2ccccc12
- survivor count [1]: 6 of 10
- survivor count [2]: 2 of 10
